Binding data for one molecule are collected here from article PMC5789003.

These are yes or no findings as the source states them, for the method shown. Some results given as binding are weak or reduced against the parent protein; the word gives no strength.

Assay [1] has as its target T1, Mfa1 (shaft protein of the Mfa1 fimbria), wild type, in P. gingivalis (Porphyromonas gingivalis) (UniProt B2RHG1).
T1 sequence: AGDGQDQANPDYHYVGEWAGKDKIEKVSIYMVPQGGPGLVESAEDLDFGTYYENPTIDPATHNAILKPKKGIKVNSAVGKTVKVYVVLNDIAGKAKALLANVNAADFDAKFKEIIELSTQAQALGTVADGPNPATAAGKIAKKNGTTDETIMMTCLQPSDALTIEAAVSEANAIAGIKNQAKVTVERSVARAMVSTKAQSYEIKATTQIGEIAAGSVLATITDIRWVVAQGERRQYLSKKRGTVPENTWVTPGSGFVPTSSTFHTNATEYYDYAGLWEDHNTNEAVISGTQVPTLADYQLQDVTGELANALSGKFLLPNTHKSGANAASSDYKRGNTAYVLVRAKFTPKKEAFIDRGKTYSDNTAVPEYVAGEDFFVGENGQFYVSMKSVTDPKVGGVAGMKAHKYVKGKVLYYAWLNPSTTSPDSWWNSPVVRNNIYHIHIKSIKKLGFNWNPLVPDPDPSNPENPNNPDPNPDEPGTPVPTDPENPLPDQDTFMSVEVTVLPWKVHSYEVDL
In words: condition: only with 2-mercaptoethanol in the SDS-PAGE buffer; SDS-PAGE and immunoblot of partially heat-denatured fimbriae (ladder-like pattern). In general terms: A western blot detects proteins with antibodies after separation by electrophoresis.

Assay [2] addresses Mfa2 (anchor protein of the Mfa1 fimbria), wild type, in P. gingivalis (Porphyromonas gingivalis) (UniProt B2RHG2). Described as above.
For assay [3], the target named is T1, Mfa1 (shaft protein of the Mfa1 fimbria), wild type, in P. gingivalis (Porphyromonas gingivalis). Nature of the assay: SDS-PAGE and immunoblot of partially heat-denatured fimbriae (ladder-like pattern).

B1: Mfa2 (anchor protein of the Mfa1 fimbria), wild type, in P. gingivalis (protein, UniProt B2RHG2 29-324)
chain: CDKMIYDNYDDCPRGVYVNFYSQTECAENPSYPAEVARLNVYAFDKDGILRSANVFEDVQLSAAKEWLIPLEKDGLYTIFAWGNIDDHYNIGEIKIGETTKQQVLMRLKQDGKWATNIDGTTLWYATSPVVELKNMEDGADQYIHTRANLREYTNRVTVSVDSLPHPENYEIKLASSNGSYRFDGTVAKADSTYYPGETKVVGDSTCRAFFTTLKLESGHENTLSVTHKPTGREIFRTDLVGAILSSQYAQNINLRCINDFDIRLVAHHCNCPDDTYVVVQIWINGWLIHSYEIEL
modifications: lipidated cysteine (Cys29); disulphide bonds Cys54-Cys285 and Cys298-Cys300
For the molecule B1, the binding result in assay [1] was “no binding”; in assay [2] it was “no binding”; in assay [3], “binds”.
